# Results taken from PubChem BioAssay AID2685 (National Center for Advancing Translational Sciences (NCATS), 2010).
# This is one part of the list. Further columns of the screen follow, without active or inactive calls. Compounds called inactive in the main read-out are mostly missing here. Words in brackets tell the shape of the fitted curve; partial curves, single points and poor fits give uncertain potencies.
# Experiment: qHTS Assay for Lipid Storage Modulators in Drosophila S3 Cells;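 for cell number change: cells counted by Cell Tracker Red CMTPX staining in the red channel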
# Settings: BODIPY lipid droplet fluorescence, 18-24 h; for cell number change: measured here: cell count max response, cells fed with added oleic acid
# How it was run: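 Laser-scanning cytometry quantifies lipid droplet accumulation (500–530 nm total intensity; droplet/cell object ratio) in oleic acid-fed (400 uM added) Drosophila S3 cells treated with a concentration series. 20 uM Triacsin C defined 100% inhibition.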
# [1] = measured here: cell number channel AC50, cells fed with added oleic acid
# [2] = measured here: lipid fluorescence (Fed channel) AC50, cells fed with added oleic acid
Compound,cell number change [%],AC50 [1],AC50 [2]
CCCCOc1ccc(C(=O)N/C(=C\c2ccc(OC)cc2)C(=O)OCc2ccco2)cc1,-28.7,"0.82 µM [rising, full curve, poor fit]",–
CN(C)c1ccc(CNc2ccc3c(c2)ncn3C)cc1,–,–,"0.13 µM [falling, full curve, poor fit]"
Cc1cccc(-c2nsc(SCC(=O)Nc3cc(C)on3)n2)c1,3.07,–,"0.00461 µM [falling, full curve, poor fit]"
COc1ccc(N2CCN(/C(=N\S(=O)(=O)c3ccc(C)cc3)Nc3nc(C)cc(C)n3)CC2)cc1,–,"0.259 µM [rising, full curve, poor fit]",–
Cn1c(=O)c(C(=O)c2ccccc2)nc2ccccc21,-15.2,–,"20.6 µM [falling, single point]"
CCc1cc2c(=O)n(CC)c(SC(C)C(=O)Nc3c(C)n(C)n(-c4ccccc4)c3=O)nc2s1 (stereo not drawn),43.7,"0.731 µM [rising, partial curve]","0.731 µM [rising, partial curve]"
CCCCNc1cc(C)nc(N2CCOCC2)n1,119,"11.6 µM [rising, partial curve]","0.366 µM [rising, full curve, poor fit]"
COc1cccc(C(C(=O)NC2CCCCC2)N(C(=O)c2csnn2)C2CC2)c1 (stereo not drawn),-3.15,–,"29.1 µM [falling, single point]"
COc1ccc(N(CC(=O)NCc2ccc3c(c2)OCO3)S(C)(=O)=O)cc1OC,107,"6.51 µM [falling, single point]","6.51 µM [falling, partial curve]"
CC(C)(C)NC(=O)Nc1ccc(Cn2cc(C(F)(F)F)ccc2=O)cc1,27.5,–,–
Cc1cc(C)n2nc(CNS(=O)(=O)c3ccc(C)c(C)c3)nc2n1,-2.59,–,"29.1 µM [rising, single point]"
FC(F)(F)c1cc(-c2ccco2)nc(NCc2cccs2)n1,-26.6,–,"29.1 µM [falling, single point]"
CCOc1ccc(C2NC(=O)Cc3cc(OC)c(OC)cc32)cc1 (stereo not drawn),13.5,–,–
Cc1nc(=O)c(-c2ccccc2)c(C)n1CCCCCC(=O)O,-35,"0.00517 µM [falling, full curve]","0.0058 µM [falling, full curve, poor fit]"
Cc1ccc(N=Cc2ccc[nH]2)c(O)c1,–,–,"2.06 µM [falling, partial curve]"
O=C(COC(=O)C1CC2CCCC(C1)C2=O)NNC(=O)c1ccc([N+](=O)[O-])cc1 (stereo not drawn),-1.53,–,–
CCOC(=O)CSc1nnc(CSc2nc(N)c3c(C)c(C)sc3n2)n1-c1ccccc1,-0.16,–,"0.411 µM [rising, full curve, poor fit]"
COc1ccc(C(C(=O)NC2CCCC2)N(C(=O)CNC(=O)c2ccco2)c2cccnc2)cc1 (stereo not drawn),-3.91,–,"6.51 µM [falling, single point]"
CN(Cc1ccccc1)C(=O)c1ccccc1NC(=O)C1CC1,-37.7,–,–
O=C(NCc1ccccc1)c1ccc(Cl)c(NC2=NC3CS(=O)(=O)CC3S2)c1 (stereo not drawn),10.1,–,–

Compound,cell number change [%],AC50 [1],AC50 [2]
CC(CCc1ccccc1)NC(=O)Cc1ccc([N+](=O)[O-])cc1 (stereo not drawn),25.7,–,"18.4 µM [rising, single point]"
COC(=O)c1ccc(CS(=O)(=O)c2ccc(F)cc2)o1,18.5,–,"4.11 µM [rising, partial curve, poor fit]"
O=C(O)c1ccc(NC2=C(n3nnc4ccccc43)C(=O)c3ccccc3C2=O)cc1,-13,–,"29.1 µM [falling, single point]"
Oc1ccc(Cl)cc1CNCC1CCCO1 (stereo not drawn),-13.7,–,"0.00651 µM [falling, full curve, poor fit]"
COc1ccccc1N1CCN(C(=O)CSc2nnc(-c3ccoc3C)o2)CC1,-1.42,–,–
CC1Cc2ccccc2N1c1ncnc2c1nnn2Cc1ccccc1Cl (stereo not drawn),24.3,–,"9.2 µM [rising, partial curve]"
CCOC(=O)c1sc(C)c2c1NC(c1ccc(Cl)cc1)NC2=O (stereo not drawn),-29.4,–,"0.731 µM [rising, full curve, poor fit]"
Cc1cc(N2CCN(C(=O)Nc3ccccc3C#N)CC2)c2ccccc2n1,0.824,–,–
CCc1cccc2c1NC(=O)C2(O)N1CCCC(C)C1 (stereo not drawn),-1.17,–,–
CCOC(=O)c1ccc(NC(=S)NC2CCCC2)cc1,-8.52,–,–
COC(=O)c1ccc(NC(=O)COC(=O)CCC2CCCC2)cc1,-2.14,–,"0.291 µM [rising, full curve, poor fit]"
COc1cc(OC)cc(C(=O)Nc2ccc([N+](=O)[O-])cn2)c1,-10.4,–,"29.1 µM [rising, single point]"
CC(C)(C)c1ccc(S(=O)(=O)N2CCN(CC(=O)N3CC(=O)Nc4ccccc43)CC2)cc1,9.59,"0.731 µM [falling, single point]",–
CCOC(=O)N1CCN(S(=O)(=O)c2cc(OCC)ccc2OCC)CC1,7.83,–,–
COc1cc(CNc2ccc3[nH]c(=O)[nH]c3c2)ccc1OCc1ccc(Cl)cc1,-11.8,–,"23.1 µM [falling, single point]"
COc1ccccc1NC(=O)CSc1nnc(NC(=O)c2ccco2)s1,31.3,"18.4 µM [rising, single point]","14.6 µM [rising, single point]"
CC(C)Nc1nnc(SCC(=O)NCc2ccc3c(c2)OCO3)s1,58.3,"0.82 µM [rising, full curve, poor fit]",–
Nc1cc(=O)[nH]c(SCC(=O)Nc2cccnc2Cl)n1,23.8,–,"0.206 µM [falling, single point]"
COc1cccc(CSc2nc3ccccc3cc2C=O)c1,-45.7,"0.0411 µM [falling, partial curve, poor fit]",–
C/C(=C\c1ccccc1)C(=O)Nc1ccc(S(=O)(=O)Nc2ncccn2)cc1,-2.49,"4.61 µM [falling, single point]","4.61 µM [falling, partial curve]"

# Taken from above.
# Oc1ccc(Cl)cc1CNCC1CCCO1 (stereo not drawn) | AC50 [2]: 0.00651 µM [falling, full curve, poor fit]
# CC1Cc2ccccc2N1c1ncnc2c1nnn2Cc1ccccc1Cl (stereo not drawn) | cell number change [%]: 24.3
